Assay [1] addresses pAS Rab11A wt (UniProt P62491). Kind of assay: two-hybrid; Y190 co-transformed with prey (pP6 or pACT) and bait (pAS) plasmids; growth on synthetic medium lacking leucine, tryptophan and histidine with 30 mM 3 AT (his3).
Assay [2] concerns the target pAS Rab1A wt (UniProt P62820). The description is as above.
The target in assay [3] is pAS Rab1B Q67L (UniProt Q9H0U4). Described as above.
In assay [4] the target is pAS Rab1B wt (UniProt Q9H0U4). The assay is described as above.
The target of assay [5] is pAS Rab33B wt (UniProt Q9H082). The assay is described as above.
The target in assay [6] is pAS Rab6B Q72L (UniProt Q9NRW1). The description is as above.
Assay [7] concerns the target pAS RhoA wt (UniProt P61586). Described as above.
In assay [8] the target is pAS Ypt1 wt (UniProt P01123). Described as above.
The target of assay [9] is T1, pAS Ypt6p Q69L (yeast) (UniProt Q99260).
T1 sequence: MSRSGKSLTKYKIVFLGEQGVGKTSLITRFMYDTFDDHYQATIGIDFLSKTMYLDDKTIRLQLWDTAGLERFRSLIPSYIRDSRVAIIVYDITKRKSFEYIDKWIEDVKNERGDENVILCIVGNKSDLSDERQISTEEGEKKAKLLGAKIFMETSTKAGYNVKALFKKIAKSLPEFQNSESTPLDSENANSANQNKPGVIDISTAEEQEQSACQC
The assay is described as above.

The chains behind the UniProt entries cited, without tags or fusion partners. Where a name states a change or a piece, a line headed by the entry shows the natural chain unless it says otherwise.
UniProt P62491: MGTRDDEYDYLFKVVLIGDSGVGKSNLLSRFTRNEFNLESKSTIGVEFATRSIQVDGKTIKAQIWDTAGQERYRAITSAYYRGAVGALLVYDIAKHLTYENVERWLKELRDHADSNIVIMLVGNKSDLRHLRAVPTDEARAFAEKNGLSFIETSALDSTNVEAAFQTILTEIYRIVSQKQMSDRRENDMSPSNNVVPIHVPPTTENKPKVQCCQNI
UniProt P62820: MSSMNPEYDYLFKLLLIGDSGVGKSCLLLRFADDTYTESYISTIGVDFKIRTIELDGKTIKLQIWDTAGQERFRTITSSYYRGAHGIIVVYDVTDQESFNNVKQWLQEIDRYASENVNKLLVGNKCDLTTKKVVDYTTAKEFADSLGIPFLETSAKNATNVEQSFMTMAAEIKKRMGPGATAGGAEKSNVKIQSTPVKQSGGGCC
UniProt Q9H0U4: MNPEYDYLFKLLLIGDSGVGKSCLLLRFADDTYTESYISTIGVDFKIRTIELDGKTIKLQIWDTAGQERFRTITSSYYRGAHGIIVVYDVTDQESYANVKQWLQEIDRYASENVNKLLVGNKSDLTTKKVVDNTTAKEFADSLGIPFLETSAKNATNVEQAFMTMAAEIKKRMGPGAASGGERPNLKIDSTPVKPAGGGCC
UniProt Q9H082: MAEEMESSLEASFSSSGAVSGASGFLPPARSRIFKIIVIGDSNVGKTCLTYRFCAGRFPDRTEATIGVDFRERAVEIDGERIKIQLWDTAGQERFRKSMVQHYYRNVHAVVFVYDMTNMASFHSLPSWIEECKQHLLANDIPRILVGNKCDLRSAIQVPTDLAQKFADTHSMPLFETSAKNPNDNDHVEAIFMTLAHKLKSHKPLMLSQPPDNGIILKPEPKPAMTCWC
UniProt Q9NRW1: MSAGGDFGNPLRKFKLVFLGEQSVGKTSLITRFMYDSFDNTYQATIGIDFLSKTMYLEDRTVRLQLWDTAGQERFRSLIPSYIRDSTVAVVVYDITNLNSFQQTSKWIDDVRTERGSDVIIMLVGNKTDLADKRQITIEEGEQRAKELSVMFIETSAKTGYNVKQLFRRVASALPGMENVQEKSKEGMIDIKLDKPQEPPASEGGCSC
UniProt P61586: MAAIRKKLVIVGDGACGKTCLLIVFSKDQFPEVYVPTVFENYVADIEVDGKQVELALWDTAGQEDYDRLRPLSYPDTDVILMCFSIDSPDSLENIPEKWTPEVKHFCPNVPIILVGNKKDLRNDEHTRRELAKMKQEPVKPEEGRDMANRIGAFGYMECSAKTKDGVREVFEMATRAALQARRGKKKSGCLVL
UniProt P01123: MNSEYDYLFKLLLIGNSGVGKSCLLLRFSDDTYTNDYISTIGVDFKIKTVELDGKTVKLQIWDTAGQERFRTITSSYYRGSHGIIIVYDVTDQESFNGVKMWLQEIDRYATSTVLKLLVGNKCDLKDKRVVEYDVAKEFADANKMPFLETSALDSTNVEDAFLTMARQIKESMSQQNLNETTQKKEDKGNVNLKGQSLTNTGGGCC

Assay [10] concerns the target LexA Rab6B Q72L (pLex9), bait of the initial screen (UniProt Q9NRW1). Kind of assay: two-hybrid; library screen: LexA Rab6B Q72L (pLex9) as bait against a random-primed human placenta cDNA library in pP6; mating of Y187 and L40ΔGal4; selection without tryptophan, leucine and histidine with 5 mM 3-aminotriazole.

These are yes or no findings as the source states them, for the method shown. Some results given as binding are weak or reduced against the parent protein; the word gives no strength.

B1: pP6 Mint1 (aa 438–769), yeast two-hybrid clone that lacks aa 495–505 (domain or fragment, UniProt Q02410-1)
chain: ASFPTYVEVPGPCDPEDLIDGIIFAANYLGSTQLLSDKTPSKNVRMMQAQEAVSRIKAPEGESQPMTEVDLFISTQRIKVLNADTQETMMDHPLRTISYIADIGNIVVLMARRRMPRSNSQENVEASHPSQDGKRQYKMICHVFESEDAQLIAQSIGQAFSVAYQEFLRANGINPEDLSQKEYSDLLNTQDMYNDDLIHFSKSENCKDVFIEKQKGEILGVVIVESGWGSILPTVIIANMMHGGPAEKSGKLNIGDQIMSINGTSLVGLPLSTCQSIIKGLKNQSRVKLNIVRCPPVTTVLIRRPDLRYQLGFSVQNGIIC
In the case of B1, the binding entry in [1] is “no binding”; in assay [2] it was “no binding”; in assay [3], “no binding”; in assay [4], “no binding”; in [5], “no binding”; in assay [6] it was “binds”. The binding entry in assay [7] was “no binding”; in assay [8], “no binding”; in assay [9], “no binding”; in assay [10], “binds”.

These data come from publication PMC3667844.
